Results are given in words; binding and its absence hold for the method and conditions named. Binding seen in cells or lysates may run through a third protein. Binding can be weak; no strength is given.

Amino acid sequences for entries named in this document (tags omitted). A change or cut given only in a name is not applied to a line headed by its entry.
UniProt O95229: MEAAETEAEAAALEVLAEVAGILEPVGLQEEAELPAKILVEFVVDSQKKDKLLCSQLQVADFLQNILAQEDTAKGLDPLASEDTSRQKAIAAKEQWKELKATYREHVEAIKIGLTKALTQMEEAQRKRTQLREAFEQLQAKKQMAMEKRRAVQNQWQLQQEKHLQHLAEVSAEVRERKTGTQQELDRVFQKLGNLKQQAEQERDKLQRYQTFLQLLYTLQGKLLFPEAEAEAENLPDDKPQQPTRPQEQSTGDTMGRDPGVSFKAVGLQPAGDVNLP
UniProt Q00987: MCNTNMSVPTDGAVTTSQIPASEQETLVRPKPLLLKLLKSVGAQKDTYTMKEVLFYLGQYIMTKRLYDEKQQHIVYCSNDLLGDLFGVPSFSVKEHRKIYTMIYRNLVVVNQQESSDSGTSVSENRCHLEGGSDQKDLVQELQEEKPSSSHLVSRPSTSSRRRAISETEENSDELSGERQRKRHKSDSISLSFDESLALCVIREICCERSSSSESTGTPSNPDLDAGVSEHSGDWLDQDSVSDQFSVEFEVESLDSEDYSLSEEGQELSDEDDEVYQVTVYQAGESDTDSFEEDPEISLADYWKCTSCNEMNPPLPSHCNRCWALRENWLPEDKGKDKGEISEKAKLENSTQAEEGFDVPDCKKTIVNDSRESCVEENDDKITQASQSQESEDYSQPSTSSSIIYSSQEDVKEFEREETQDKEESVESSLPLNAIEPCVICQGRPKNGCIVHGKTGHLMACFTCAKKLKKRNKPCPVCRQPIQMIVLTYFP

In this experiment the target is ZW10-interacting kinetochore protein 1 (human (in lysates of human pancreatic cancer cell lines; line not stated for the co-IP)) (UniProt O95229). Nature of the experiment: co-IP; anti-ZWINT antibody (1 ug) or anti-rabbit IgG added to protein lysates (500 ug), 4 °C overnight; protein A/G PLUS-Agarose beads 6 h at 4 °C; western blot with anti-p53 and anti-MDM2. Background: A western blot detects proteins with antibodies after separation by electrophoresis.

MDM2 (from UniProt Q00987 1-491): the binding result was “binds”.

The values are drawn from PMC8652205.
